Laboratory results: patent publication US11136362B2, “Peptide modulators of specific calcineurin protein-protein interactions” (The Board of Trustees of the Leland Stanford Junior …, priority 2016, dated 2021)
Not every detail of the peptide structures is certain; ends, links or a residue may be inferred. Ends that are not written are not given here.

Assays:
recombinant calcineurin = biological target: T1, recombinant calcineurin (Homo sapiens, UniProt Q08209); experiment: Calcineurin activity assay (free phosphate release); assay type: biochemical; conditions: 10 μM, in comparison to TAT
T1 construct: purchased Calbiochem

C57/BL6 mice = experiment: Spared nerve injury (SNI) model of chronic pain, von Frey mechanical threshold; assay type: in vivo, mouse; conditions: osmotic infusion pump 1 mg/kg/day for 2 weeks, compared to vehicle (TAT)
[1] = system: primary neonatal cardiomyocytes (PNCM); experiment: Mitochondrial membrane potential by live cell imaging (TMRE/CMXRos), normoxia; assay type: cell-based, rat; conditions: V1-cal 1 μM 10 minutes prior to capsaicin 1 μM
From the text: • Primary Neonatal Cardiomyocyte Isolation: Rat pups 1-3 days of age were used for primary neonatal cardiomyocyte isolation as previously described (Disatnik et al., Journal of the American Heart Association, 2013. 2:e000461). • Peptide Synthesis: Peptides were synthesized using microwave chemistry on a Liberty Microwave Peptide Synthesizer (CEM Corporation) (Gross et al., Basic Research in Cardiology, 2013. 108:381). Peptides were synthesized as one polypeptide with TAT47-57 carrier in the following order: N-terminus-TAT47-57-spacer (Gly-Gly)-cargo-C-terminus. • RT PCR: Total RNA was isolated from PNCM on day 4 in culture and H9C2 cells at passages 18, 23, 24 (Ambion RNAqueous kit). To reduce DNA contamination in the preparations, the isolated total RNA was subject to precipitation with lithium chloride and DNase digestion (Ambion DNase free). cDNA was generated from mRNA using Takara Primescript cDNA synthesis kit with oligo dT primers. Previously described primers, forward: […] (SEQ ID NO:112) and reverse: […] […] The amplified PCR product was subcloned into the pCR TOPO vector (Invitrogen) and sequenced. • Quantitative PCR: cDNA from mRNA was generated from H9C2, PNCM, and heart tissues (RA, LA, RV, LV) as described above. […]

[2] = system: primary neonatal cardiomyocytes (PNCM); experiment: PNCM single cell hypoxia-reoxygenation; assay type: cell-based, rat; conditions: 1 mM prior to hypoxia and prior reoxygenation; versus A5-cal

## YGRKKRRQRRRGGRAITILDTEKS [V1-cal]
Recombinant calcineurin
  calcineurin activity, free phosphate release: reduced the ability for calcineurin to dephosphorylate a calcineurin substrate
C57/BL6 mice
  mechanical hypersensitivity (von Frey): significant reduction in hypersensitivity
[1]
  reduction of the negative change in mitochondrial membrane potential caused by capsaicin: 10 fold
[2]
  number of dead cells after hypoxia-reoxygenation: significantly reduces the number of dead cells
